{"source": "PubChem BioAssay AID652259 – Drosophila RNAi Screening Center | 2013", "purpose": "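Knock-downs that push a Wingless-driven reporter up or down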 (primary screen)", "cells": "Drosophila clone 8 imaginal disc epithelial cells", "reagent": "long dsRNA against Drosophila genes", "treatment": "pathway stimulated by co-transfected Wingless expression plasmid", "measurement": "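Firefly luciferase from a tcf-site Wingless reporter, measured alongside co-transfected Renilla luciferase that tracks transfection; pathway stimulated by a Wingless plasmid; the firefly-to-Renilla ratio is not deposited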", "reading the numbers": "firefly reporter light: higher = more Wg reporter light, before normalisation; Renilla control light: higher = more transfected or surviving cells", "rule for the call": "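a knock-down is a candidate when at least two out of four statistical tests show it departing from its plate mean; one test alone signals a weak candidate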", "calls": "active = candidate regulator (raises or lowers reporter); inactive = not a candidate", "note": "The screen tested about 22,000 reagents; below is an unselected part of those with a known target gene and a result. In the full data, 233 (1.1%) got an active call. 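Light values are raw, unnormalised plate reads; the ratio scores behind the reporter calls were not deposited.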 The record does not give: the amount of reagent, the time to read-out, the dose of the treatment."}
{"Target gene":"Acat2","dsRNA":"DRSC08630","firefly reporter light, replicate 1":9792,"Renilla control light, replicate 1":4122,"Outcome":"inactive"}
{"Target gene":"nvy","dsRNA":"DRSC04705","firefly reporter light, replicate 1":16970,"Renilla control light, replicate 1":3287,"Outcome":"inactive"}
{"Target gene":"CG7458","dsRNA":"DRSC11829","firefly reporter light, replicate 1":18698,"Renilla control light, replicate 1":5216,"Outcome":"inactive"}
{"Target gene":"CG7458","dsRNA":"DRSC21340","firefly reporter light, replicate 1":5.37e5,"firefly reporter light, replicate 2":5.74e5,"Renilla control light, replicate 1":2.40e5,"Renilla control light, replicate 2":2.00e5,"Outcome":"inactive"}
{"Target gene":"Mst84Dd","dsRNA":"DRSC12600","firefly reporter light, replicate 1":17456,"Renilla control light, replicate 1":4626,"Outcome":"inactive"}
{"Target gene":"cher","dsRNA":"DRSC16924","firefly reporter light, replicate 1":3099,"firefly reporter light, replicate 2":6301,"Renilla control light, replicate 1":1176,"Renilla control light, replicate 2":1962,"Outcome":"inactive"}
{"Target gene":"CG4210","dsRNA":"DRSC15551","firefly reporter light, replicate 1":8149,"Renilla control light, replicate 1":2908,"Outcome":"inactive"}
{"Target gene":"beat-IIb","dsRNA":"DRSC13219","firefly reporter light, replicate 1":5445,"Renilla control light, replicate 1":342,"Outcome":"inactive"}
{"Target gene":"beat-IIb","dsRNA":"DRSC14816","firefly reporter light, replicate 1":16841,"Renilla control light, replicate 1":3885,"Outcome":"inactive"}
{"Target gene":"beat-IIb","dsRNA":"DRSC15546","firefly reporter light, replicate 1":16348,"Renilla control light, replicate 1":4723,"Outcome":"inactive"}
{"Target gene":"Smg6","dsRNA":"DRSC16029","firefly reporter light, replicate 1":3424,"firefly reporter light, replicate 2":9101,"Renilla control light, replicate 1":1850,"Renilla control light, replicate 2":3202,"Outcome":"inactive"}
{"Target gene":"Snap29","dsRNA":"DRSC04721","firefly reporter light, replicate 1":3012,"firefly reporter light, replicate 2":5048,"Renilla control light, replicate 1":812,"Renilla control light, replicate 2":2192,"Outcome":"inactive"}
{"Target gene":"CG5968","dsRNA":"DRSC02916","firefly reporter light, replicate 1":4077,"firefly reporter light, replicate 2":5944,"Renilla control light, replicate 1":1178,"Renilla control light, replicate 2":3088,"Outcome":"inactive"}
{"Target gene":"Wwox","dsRNA":"DRSC03030","firefly reporter light, replicate 1":16740,"firefly reporter light, replicate 2":6.58e5,"Renilla control light, replicate 1":6887,"Renilla control light, replicate 2":3.10e5,"Outcome":"inactive"}
{"Target gene":"Wwox","dsRNA":"DRSC22872","firefly reporter light, replicate 1":1.00e6,"firefly reporter light, replicate 2":8.87e5,"Renilla control light, replicate 1":5.17e5,"Renilla control light, replicate 2":84,"Outcome":"inactive"}
{"Target gene":"CG8191","dsRNA":"DRSC20091","firefly reporter light, replicate 1":22138,"Renilla control light, replicate 1":10411,"Outcome":"inactive"}
{"Target gene":"cindr","dsRNA":"DRSC14126","firefly reporter light, replicate 1":1922,"firefly reporter light, replicate 2":9612,"Renilla control light, replicate 1":884,"Renilla control light, replicate 2":2818,"Outcome":"inactive"}
{"Target gene":"cindr","dsRNA":"DRSC14298","firefly reporter light, replicate 1":4716,"Renilla control light, replicate 1":1517,"Outcome":"inactive"}
{"Target gene":"NimC2","dsRNA":"DRSC01881","firefly reporter light, replicate 1":1729,"firefly reporter light, replicate 2":10578,"Renilla control light, replicate 1":989,"Renilla control light, replicate 2":4134,"Outcome":"inactive"}
{"Target gene":"Osi20","dsRNA":"DRSC12568","firefly reporter light, replicate 1":21108,"Renilla control light, replicate 1":4881,"Outcome":"inactive"}
{"Target gene":"sunz","dsRNA":"DRSC12559","firefly reporter light, replicate 1":9036,"Renilla control light, replicate 1":2356,"Outcome":"inactive"}
{"Target gene":"Ubc4","dsRNA":"DRSC11312","firefly reporter light, replicate 1":4637,"Renilla control light, replicate 1":1725,"Outcome":"inactive"}
{"Target gene":"CG33642","dsRNA":"DRSC01325","firefly reporter light, replicate 1":21916,"Renilla control light, replicate 1":8859,"Outcome":"inactive"}
{"Target gene":"uno","dsRNA":"DRSC07244","firefly reporter light, replicate 1":4747,"firefly reporter light, replicate 2":7932,"Renilla control light, replicate 1":1130,"Renilla control light, replicate 2":3451,"Outcome":"inactive"}
{"Target gene":"CG4627","dsRNA":"DRSC06873","firefly reporter light, replicate 1":4771,"Renilla control light, replicate 1":1868,"Outcome":"inactive"}
